# Measurements published in the supplement of paper PMC10849652.
# Chains of the proteins cited; added tags and fusions are not shown. Lines headed by an entry give the natural chain unless they say otherwise; changes in a name come on top.
# UniProt Q9NWK9: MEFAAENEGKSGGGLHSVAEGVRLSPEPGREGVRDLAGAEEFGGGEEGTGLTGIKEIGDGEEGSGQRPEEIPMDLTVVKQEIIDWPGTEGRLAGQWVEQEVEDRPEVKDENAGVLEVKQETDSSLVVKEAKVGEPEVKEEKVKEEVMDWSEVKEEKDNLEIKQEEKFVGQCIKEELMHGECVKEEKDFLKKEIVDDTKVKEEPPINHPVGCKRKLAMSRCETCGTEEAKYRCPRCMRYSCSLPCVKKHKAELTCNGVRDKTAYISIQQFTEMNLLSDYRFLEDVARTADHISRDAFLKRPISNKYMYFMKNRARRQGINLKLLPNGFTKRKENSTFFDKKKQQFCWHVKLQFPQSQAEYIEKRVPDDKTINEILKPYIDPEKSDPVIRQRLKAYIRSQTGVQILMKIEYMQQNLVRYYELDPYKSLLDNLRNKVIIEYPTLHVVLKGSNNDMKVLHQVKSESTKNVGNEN
# UniProt O43149: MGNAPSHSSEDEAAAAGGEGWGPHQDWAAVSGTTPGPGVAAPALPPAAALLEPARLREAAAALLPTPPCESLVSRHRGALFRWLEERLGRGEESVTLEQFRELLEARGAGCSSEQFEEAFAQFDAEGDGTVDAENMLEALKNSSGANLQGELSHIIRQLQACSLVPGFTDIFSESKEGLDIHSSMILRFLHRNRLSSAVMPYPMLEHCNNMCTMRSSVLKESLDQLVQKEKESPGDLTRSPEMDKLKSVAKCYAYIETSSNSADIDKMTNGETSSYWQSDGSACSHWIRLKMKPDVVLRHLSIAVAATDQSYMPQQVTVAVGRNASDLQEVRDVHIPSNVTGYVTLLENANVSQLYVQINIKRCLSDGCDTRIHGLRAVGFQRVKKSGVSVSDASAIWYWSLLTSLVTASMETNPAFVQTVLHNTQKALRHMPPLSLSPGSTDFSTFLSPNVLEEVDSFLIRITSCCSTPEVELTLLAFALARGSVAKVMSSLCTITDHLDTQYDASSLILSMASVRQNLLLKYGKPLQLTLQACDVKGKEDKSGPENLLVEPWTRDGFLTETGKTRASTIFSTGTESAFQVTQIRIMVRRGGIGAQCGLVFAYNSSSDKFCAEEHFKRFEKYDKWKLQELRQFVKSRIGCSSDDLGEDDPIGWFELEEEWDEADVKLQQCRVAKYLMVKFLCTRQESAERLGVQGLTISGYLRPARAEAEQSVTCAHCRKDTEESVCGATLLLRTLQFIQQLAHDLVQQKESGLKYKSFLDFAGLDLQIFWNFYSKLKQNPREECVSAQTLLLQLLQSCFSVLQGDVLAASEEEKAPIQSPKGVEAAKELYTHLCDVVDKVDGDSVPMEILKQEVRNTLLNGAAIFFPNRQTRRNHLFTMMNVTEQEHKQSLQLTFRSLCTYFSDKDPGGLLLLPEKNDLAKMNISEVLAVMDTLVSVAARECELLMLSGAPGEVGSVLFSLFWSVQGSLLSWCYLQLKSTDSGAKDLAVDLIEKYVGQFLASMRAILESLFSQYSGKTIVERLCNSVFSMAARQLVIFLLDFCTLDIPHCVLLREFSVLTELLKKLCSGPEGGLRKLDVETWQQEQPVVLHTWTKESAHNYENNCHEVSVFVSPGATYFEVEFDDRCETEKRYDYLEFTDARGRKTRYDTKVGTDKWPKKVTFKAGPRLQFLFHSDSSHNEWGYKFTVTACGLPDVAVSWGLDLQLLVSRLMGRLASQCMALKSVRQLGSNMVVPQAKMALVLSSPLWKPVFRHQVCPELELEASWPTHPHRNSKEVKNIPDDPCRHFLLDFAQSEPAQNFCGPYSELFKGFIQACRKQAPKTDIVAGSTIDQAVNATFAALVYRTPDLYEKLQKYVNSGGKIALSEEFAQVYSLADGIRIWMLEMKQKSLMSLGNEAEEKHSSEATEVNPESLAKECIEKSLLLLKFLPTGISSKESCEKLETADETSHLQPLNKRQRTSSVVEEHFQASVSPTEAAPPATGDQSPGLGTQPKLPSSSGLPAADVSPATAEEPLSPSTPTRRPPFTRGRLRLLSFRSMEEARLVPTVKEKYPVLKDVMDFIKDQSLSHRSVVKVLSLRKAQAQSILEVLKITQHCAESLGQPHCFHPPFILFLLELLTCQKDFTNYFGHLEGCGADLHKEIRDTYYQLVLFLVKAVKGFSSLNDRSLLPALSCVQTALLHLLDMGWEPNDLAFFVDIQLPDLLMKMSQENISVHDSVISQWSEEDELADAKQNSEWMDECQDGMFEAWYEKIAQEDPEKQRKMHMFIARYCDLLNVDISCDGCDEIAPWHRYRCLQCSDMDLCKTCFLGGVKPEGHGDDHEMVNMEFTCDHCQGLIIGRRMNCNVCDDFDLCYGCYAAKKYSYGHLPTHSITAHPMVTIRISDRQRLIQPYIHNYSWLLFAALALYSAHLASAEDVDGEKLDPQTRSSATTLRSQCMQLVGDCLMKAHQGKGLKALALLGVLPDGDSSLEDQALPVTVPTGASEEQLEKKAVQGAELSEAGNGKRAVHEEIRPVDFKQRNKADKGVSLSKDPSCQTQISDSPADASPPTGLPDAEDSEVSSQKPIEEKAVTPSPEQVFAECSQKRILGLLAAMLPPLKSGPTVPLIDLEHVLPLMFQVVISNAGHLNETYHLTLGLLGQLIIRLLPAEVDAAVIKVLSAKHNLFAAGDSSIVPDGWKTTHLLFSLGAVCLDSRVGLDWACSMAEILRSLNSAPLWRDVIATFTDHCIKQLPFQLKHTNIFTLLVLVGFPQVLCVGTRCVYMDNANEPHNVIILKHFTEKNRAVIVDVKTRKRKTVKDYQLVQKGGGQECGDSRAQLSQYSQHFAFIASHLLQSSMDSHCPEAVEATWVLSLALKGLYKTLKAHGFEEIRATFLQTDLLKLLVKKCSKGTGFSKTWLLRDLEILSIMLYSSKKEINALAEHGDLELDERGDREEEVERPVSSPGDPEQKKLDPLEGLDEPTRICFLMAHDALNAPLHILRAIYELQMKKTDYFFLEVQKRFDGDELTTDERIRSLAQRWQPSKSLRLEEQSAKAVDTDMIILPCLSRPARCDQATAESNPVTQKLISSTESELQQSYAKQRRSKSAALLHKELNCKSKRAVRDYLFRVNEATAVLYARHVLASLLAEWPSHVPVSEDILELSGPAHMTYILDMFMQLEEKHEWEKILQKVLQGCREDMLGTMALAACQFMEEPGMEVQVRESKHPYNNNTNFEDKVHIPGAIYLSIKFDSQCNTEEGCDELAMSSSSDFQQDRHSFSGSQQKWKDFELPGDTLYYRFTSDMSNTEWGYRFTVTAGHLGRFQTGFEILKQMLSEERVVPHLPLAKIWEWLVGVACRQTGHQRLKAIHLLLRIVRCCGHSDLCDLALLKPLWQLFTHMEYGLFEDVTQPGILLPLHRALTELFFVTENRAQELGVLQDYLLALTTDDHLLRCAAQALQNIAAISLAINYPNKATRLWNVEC
# UniProt Q9P2E3: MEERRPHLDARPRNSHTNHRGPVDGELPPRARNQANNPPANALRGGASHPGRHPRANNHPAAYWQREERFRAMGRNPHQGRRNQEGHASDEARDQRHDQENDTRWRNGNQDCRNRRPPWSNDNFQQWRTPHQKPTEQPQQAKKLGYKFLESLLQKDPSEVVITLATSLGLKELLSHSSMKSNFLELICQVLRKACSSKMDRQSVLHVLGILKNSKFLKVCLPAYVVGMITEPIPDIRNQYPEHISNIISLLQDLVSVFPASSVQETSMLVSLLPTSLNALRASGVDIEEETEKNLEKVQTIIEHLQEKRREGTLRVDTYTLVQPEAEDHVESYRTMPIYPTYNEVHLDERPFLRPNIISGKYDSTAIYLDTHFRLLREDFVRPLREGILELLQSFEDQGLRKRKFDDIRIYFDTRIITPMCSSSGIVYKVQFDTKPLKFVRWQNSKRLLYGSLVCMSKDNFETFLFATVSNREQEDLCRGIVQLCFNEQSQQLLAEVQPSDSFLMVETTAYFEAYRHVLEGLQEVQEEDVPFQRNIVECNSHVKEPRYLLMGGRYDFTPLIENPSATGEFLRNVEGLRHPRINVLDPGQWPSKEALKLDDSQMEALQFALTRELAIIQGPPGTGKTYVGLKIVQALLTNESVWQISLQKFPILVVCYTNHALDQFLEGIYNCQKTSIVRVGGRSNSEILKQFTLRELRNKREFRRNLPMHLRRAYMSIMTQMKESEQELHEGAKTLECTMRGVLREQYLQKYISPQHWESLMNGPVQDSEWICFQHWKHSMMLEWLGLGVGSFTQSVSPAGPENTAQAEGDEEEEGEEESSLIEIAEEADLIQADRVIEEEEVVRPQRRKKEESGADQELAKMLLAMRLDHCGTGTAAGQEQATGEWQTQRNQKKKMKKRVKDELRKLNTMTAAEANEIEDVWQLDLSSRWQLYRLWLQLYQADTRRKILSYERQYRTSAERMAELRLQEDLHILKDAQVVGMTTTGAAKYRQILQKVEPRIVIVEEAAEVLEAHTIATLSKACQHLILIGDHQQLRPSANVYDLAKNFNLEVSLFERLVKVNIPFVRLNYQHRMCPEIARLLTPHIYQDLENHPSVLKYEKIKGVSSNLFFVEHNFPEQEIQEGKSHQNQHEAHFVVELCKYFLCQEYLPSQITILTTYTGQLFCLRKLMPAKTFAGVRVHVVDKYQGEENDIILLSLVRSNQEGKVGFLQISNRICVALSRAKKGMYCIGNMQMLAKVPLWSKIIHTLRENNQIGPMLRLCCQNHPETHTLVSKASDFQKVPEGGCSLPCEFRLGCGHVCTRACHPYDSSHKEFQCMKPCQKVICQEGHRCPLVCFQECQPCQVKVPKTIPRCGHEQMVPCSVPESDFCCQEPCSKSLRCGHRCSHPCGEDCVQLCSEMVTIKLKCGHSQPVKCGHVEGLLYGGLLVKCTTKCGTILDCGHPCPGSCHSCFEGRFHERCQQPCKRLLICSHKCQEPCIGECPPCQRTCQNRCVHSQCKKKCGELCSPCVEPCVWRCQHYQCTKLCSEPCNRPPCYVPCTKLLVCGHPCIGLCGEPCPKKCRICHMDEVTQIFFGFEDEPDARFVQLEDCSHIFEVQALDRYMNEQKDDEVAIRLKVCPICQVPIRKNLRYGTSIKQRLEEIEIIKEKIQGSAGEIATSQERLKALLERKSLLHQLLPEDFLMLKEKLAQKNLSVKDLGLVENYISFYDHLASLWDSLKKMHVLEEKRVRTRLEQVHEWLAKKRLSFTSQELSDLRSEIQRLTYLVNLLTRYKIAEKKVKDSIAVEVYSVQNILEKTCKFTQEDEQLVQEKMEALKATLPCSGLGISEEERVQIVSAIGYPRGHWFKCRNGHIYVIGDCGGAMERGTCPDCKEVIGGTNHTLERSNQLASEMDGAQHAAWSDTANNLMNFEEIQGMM
# UniProt Q9H5H4: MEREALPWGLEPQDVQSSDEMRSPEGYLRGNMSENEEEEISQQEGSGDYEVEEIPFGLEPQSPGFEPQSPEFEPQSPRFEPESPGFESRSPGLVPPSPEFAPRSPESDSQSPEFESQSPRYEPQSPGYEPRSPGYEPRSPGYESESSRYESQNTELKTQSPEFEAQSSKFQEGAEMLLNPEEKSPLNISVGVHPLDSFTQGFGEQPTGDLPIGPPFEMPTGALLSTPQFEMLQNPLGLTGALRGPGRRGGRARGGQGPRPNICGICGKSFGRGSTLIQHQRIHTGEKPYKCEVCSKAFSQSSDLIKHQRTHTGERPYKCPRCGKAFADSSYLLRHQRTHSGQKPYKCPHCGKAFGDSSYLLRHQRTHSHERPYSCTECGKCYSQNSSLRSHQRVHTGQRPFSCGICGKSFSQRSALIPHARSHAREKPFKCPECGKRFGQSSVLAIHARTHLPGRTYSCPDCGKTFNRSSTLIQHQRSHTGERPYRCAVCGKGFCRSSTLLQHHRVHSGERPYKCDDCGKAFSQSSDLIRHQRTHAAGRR
# UniProt Q9UHR6: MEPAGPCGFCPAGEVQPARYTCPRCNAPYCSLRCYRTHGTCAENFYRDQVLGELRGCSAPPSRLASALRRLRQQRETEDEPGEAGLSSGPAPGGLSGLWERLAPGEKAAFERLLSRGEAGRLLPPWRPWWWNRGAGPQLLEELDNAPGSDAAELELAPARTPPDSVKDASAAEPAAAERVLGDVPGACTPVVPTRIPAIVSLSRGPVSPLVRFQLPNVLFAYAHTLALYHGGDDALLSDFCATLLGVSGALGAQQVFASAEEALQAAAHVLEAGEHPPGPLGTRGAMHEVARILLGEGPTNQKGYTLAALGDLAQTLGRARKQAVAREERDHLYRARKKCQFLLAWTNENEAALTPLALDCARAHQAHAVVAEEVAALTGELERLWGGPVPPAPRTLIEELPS
# UniProt Q96NC0: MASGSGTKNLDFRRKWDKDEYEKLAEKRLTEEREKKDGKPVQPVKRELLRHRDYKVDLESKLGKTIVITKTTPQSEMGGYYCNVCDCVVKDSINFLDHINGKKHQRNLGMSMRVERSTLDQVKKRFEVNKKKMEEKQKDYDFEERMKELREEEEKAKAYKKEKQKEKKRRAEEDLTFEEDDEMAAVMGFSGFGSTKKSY
# The list shows a part of the results.
# Columns and labels:
# Assay in all cases: log2 fold change, soluble protein after heating vs DMSO (PISA); higher = thermal stabilisation; K562 lysate, 10 uM; active = over 0.2 and 3.5 SD of the protein, either way, in both replicates (recomputed)
# ibrutinib = compound: C=CC(=O)N1CCC[C@@H](n2nc(-c3ccc(Oc4ccccc4)cc3)c3c(N)ncnc32)C1 [ibrutinib]
# How it was run: (§1)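 To prepare the extract, K562 pellets were dounce-homogenised in PBS pH 7.4 with 1 mM MgCl2, giving crude material at 1 mg/mL protein. This was treated with 10 μM compound for 30 min, then heated in aliquots for 3 min over 48°C-58°C before pooling and addition of NP-40 to 0.5% at 4°C. Centrifugation at 21,000xg for 90 min left soluble protein in the supernatant, which TMTpro 16plex LC-MS/MS quantified with equalised channel sums. Results are log-two fold changes in thermal stability compared with solvent controls, from duplicates.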
# [1] = compound: CC(=O)c1cnc2ccc(-c3cc(Cl)c(O)c(Cl)c3)nc2c1N[C@H]1CC[C@H](CN(C)C)CC1
# How it was run: as §1
# ralimetinib = compound: CC(C)(C)Cn1c(N)nc2ccc(-c3[nH]c(C(C)(C)C)nc3-c3ccc(F)cc3)nc21 [ralimetinib]
# How it was run: as §1
# [2] = compound: CC(C)(O)CC(=O)NCCn1ccc2ncnc(Nc3ccc(Oc4cccc(C(F)(F)F)c4)c(Cl)c3)c21
# How it was run: as §1
# [3] = compound: CC(C)C1=C2N=C(C=C(N2N=C1)NCC3=CC=CC=C3)NCCCCCCN
# How it was run: as §1
# [4] = compound: CC1=C(C(CC(=O)N1)C2=CC=C(C=C2)C(F)(F)F)C(=O)NC3=C(C=C4C(=C3)C=NN4)F
# How it was run: as §1
# [5] = compound: CC1=C(C2=C(C=C1)C(=O)C3=CC=CC=C3N2CCCN)C
# How it was run: as §1
# [6] = compound: CC1=C(C=C(C=C1)NC(=O)C2=CC(=CC=C2)C(C)(C)C#N)NC3=CC4=C(C=C3)N=CN(C4=O)C
# How it was run: as §1
# [7] = compound: CC1=C(C=C(C=C1)NC(=O)C2=CC(=CC=C2)N(C)C)NC(=O)C3=CC=C(C=C3)O
# How it was run: as §1
# [8] = compound: CC1=CC=C(C=C1)SC2=C3C=C(SC3=CN=C2)C(=O)N
# How it was run: as §1
# vemurafenib = compound: CCCS(=O)(=O)Nc1ccc(F)c(C(=O)c2c[nH]c3ncc(-c4ccc(Cl)cc4)cc23)c1F [vemurafenib]
# How it was run: as §1
# [9] = compound: CCCS(=O)(=O)Nc1ccc(F)c(C(=O)c2c[nH]c3ncc(Cl)cc23)c1F
# How it was run: as §1
# barasertib = compound: CCN(CCCOc1ccc2c(Nc3cc(CC(=O)Nc4cccc(F)c4)[nH]n3)ncnc2c1)CCOP(=O)(O)O [barasertib]
# How it was run: as §1
# [10] = compound: CC[C@@H]1C(=O)N(C)c2cnc(Nc3ccc(C(=O)NC4CCN(C)CC4)cc3OC)nc2N1C1CCCC1
# How it was run: as §1
# volasertib = compound: CC[C@@H]1C(=O)N(C)c2cnc(Nc3ccc(C(=O)N[C@H]4CC[C@H](N5CCN(CC6CC6)CC5)CC4)cc3OC)nc2N1C(C)C [volasertib]
# How it was run: as §1
# [11] = compound: CCn1c(C(=O)N(C2CC2)C2CC2)cc2c3c(ncn3C)c(Nc3cc(C)n(C)n3)nc21
# How it was run: as §1
# [12] = compound: CCn1cc(-c2ccnc3[nH]c(-c4cccc(CN(C)C)c4)cc23)c(-c2ccc(NC(=O)N(C)C)cc2)n1
# How it was run: as §1
# [13] = compound: CN1CCC(CNc2ccc3ncc(-c4cccc(OC(F)(F)F)c4)n3n2)CC1
# How it was run: as §1
# saracatinib = compound: CN1CCN(CCOc2cc(OC3CCOCC3)c3c(Nc4c(Cl)ccc5c4OCO5)ncnc3c2)CC1 [saracatinib]
# How it was run: as §1
# sotrastaurin = compound: CN1CCN(c2nc(C3=C(c4c[nH]c5ccccc45)C(=O)NC3=O)c3ccccc3n2)CC1 [sotrastaurin]
# How it was run: as §1
Target,log2 fold change (ibrutinib),log2 fold change [1],log2 fold change (ralimetinib),log2 fold change [2],log2 fold change [3],log2 fold change [4],log2 fold change [5],log2 fold change [6],log2 fold change [7],log2 fold change [8],log2 fold change (vemurafenib),log2 fold change [9],log2 fold change (barasertib),log2 fold change [10],log2 fold change (volasertib),log2 fold change [11],log2 fold change [12],log2 fold change [13],log2 fold change (saracatinib),log2 fold change (sotrastaurin)
ZHX1 (UniProt Q9UKY1),inactive: -0.026,inactive: 0.015,inactive: -0.007,inactive: 0.034,inactive: 0.127,inactive: 0.109,inactive: -0.144,inactive: -0.053,inactive: 0.024,inactive: -0.013,inactive: -0.058,inactive: 0.057,inactive: 0.059,inactive: 0.144,inactive: -0.079,inactive: -0.056,active: -0.603,active: 0.526,inactive: 0.011,inactive: 0.029
ZNF618 (UniProt Q5T7W0),inactive: -0.037,inactive: -0.043,inactive: 0.009,inactive: -0.011,inactive: -0.034,inactive: -0.092,inactive: 0.007,inactive: 0.039,inactive: 0.051,inactive: -0.02,inactive: -0.026,inactive: -0.004,inactive: 0.021,inactive: 0.043,inactive: -0.032,inactive: -0.073,inactive: -0.004,inactive: 0.089,inactive: 0.057,inactive: -0.019
ZNF143 (UniProt P52747),inactive: -0.031,inactive: 0.011,inactive: -0.004,inactive: 0.027,inactive: 0.041,inactive: 0.009,inactive: -0.085,inactive: 0.016,inactive: 0.015,inactive: -0.01,inactive: 0.083,inactive: 0.033,inactive: -0.069,inactive: 0.084,inactive: -0.022,inactive: -0.049,inactive: -0.017,inactive: -0.035,inactive: -0.067,inactive: -0.02
ZNHIT6 (UniProt Q9NWK9),inactive: -0.01,inactive: -0.097,inactive: -0.032,inactive: 0.005,inactive: 0.001,inactive: 0.036,inactive: -0.02,inactive: 0.032,inactive: 0.018,inactive: -0.029,inactive: -0.001,inactive: 0.035,inactive: 0.009,inactive: 0.023,inactive: -0.016,inactive: 0.05,inactive: 0.089,inactive: -0.071,inactive: -0.029,inactive: -0.005
ZNF330 (UniProt Q9Y3S2),inactive: 0.024,inactive: -0.026,inactive: -0.012,inactive: -0.036,inactive: -0.048,inactive: -0.015,inactive: -0.038,inactive: 0.07,inactive: -0.02,inactive: -0.056,inactive: -0.035,inactive: 0.042,inactive: 0.008,inactive: 0.012,inactive: 0.016,inactive: -0.027,inactive: 0.106,inactive: 0.076,inactive: -0.069,inactive: -0.231
hCG_1984214 (UniProt I3L0E3),inactive: 0.017,inactive: -0.086,inactive: -0.012,inactive: 0.023,inactive: 0.031,inactive: 0.025,inactive: -0.037,inactive: -0.032,inactive: -0.02,inactive: -0.004,inactive: 0.089,inactive: 0.032,inactive: -0.02,inactive: 0.033,inactive: 0.003,inactive: 0.015,inactive: -0.15,inactive: 0.052,inactive: 0.017,inactive: 0.022
ZYG11B (UniProt Q9C0D3),inactive: 0,inactive: 0.01,inactive: 0.022,inactive: -0.033,inactive: -0.02,inactive: -0.012,inactive: -0.005,inactive: 0.137,inactive: 0.015,inactive: -0.018,inactive: 0.005,inactive: 0,inactive: 0.019,inactive: 0.022,inactive: -0.032,inactive: -0.003,inactive: -0.088,inactive: 0.062,inactive: 0.023,inactive: -0.01
ZZEF1 (UniProt O43149),inactive: 0.018,inactive: -0.009,inactive: -0.002,inactive: -0.057,inactive: -0.014,inactive: -0.005,inactive: -0.063,inactive: 0.023,inactive: 0.009,inactive: -0.005,inactive: -0.013,inactive: 0.012,inactive: 0.051,inactive: -0.015,inactive: -0.028,inactive: -0.006,inactive: -0.116,inactive: 0.029,inactive: 0.036,inactive: 0.01
ZYX (UniProt Q15942),inactive: 0.009,inactive: 0.015,inactive: -0.007,inactive: 0.005,inactive: -0.001,inactive: -0.015,inactive: -0.015,inactive: 0.039,inactive: 0.01,inactive: -0.005,inactive: 0.013,inactive: -0.006,inactive: -0.01,inactive: 0.033,inactive: 0.041,inactive: -0.022,inactive: -0.034,inactive: 0.033,inactive: -0.002,inactive: -0.02
ZNF609 (UniProt O15014),inactive: 0.005,inactive: -0.025,inactive: 0.01,inactive: -0.034,inactive: -0.001,inactive: 0.01,inactive: -0.045,inactive: -0.082,inactive: 0.013,inactive: -0.058,inactive: 0.165,inactive: 0.033,inactive: 0.027,inactive: 0.011,inactive: 0.005,inactive: 0.022,inactive: -0.014,inactive: 0.064,inactive: 0.004,inactive: 0.013
ZNFX1 (UniProt Q9P2E3),inactive: 0.027,inactive: -0.022,inactive: 0.01,inactive: -0.008,inactive: -0.073,inactive: -0.041,inactive: -0.068,inactive: -0.038,inactive: -0.094,inactive: 0.039,inactive: 0.067,inactive: 0.073,inactive: -0.084,inactive: -0.184,inactive: -0.032,inactive: 0.032,inactive: 0.052,inactive: 0.012,inactive: -0.076,inactive: -0.064
ZNF629 (UniProt Q9UEG4),inactive: 0.047,inactive: -0.014,inactive: 0.037,inactive: -0.084,inactive: -0.027,inactive: -0.046,inactive: -0.04,inactive: 0.011,inactive: -0.013,inactive: -0.02,inactive: 0.104,inactive: 0.016,inactive: 0.128,inactive: 0.144,inactive: -0.014,inactive: -0.001,inactive: -0.013,inactive: -0.072,inactive: -0.033,inactive: 0.042
ZNF451 (UniProt Q9Y4E5),inactive: 0.004,inactive: 0.019,inactive: 0.02,inactive: 0.007,inactive: -0.011,inactive: 0.033,inactive: -0.003,inactive: -0.012,inactive: 0.019,inactive: 0.055,inactive: -0.013,inactive: 0.02,inactive: 0.019,inactive: 0.066,inactive: -0.063,inactive: -0.022,inactive: -0.047,inactive: -0.048,inactive: 0.039,inactive: 0.002
ZNF768 (UniProt Q9H5H4),inactive: 0.009,inactive: -0.013,inactive: -0.033,inactive: 0.033,inactive: 0.005,inactive: -0.024,inactive: 0.063,inactive: 0.109,inactive: 0.024,inactive: 0.027,inactive: -0.065,inactive: 0.011,inactive: -0.023,inactive: 0.036,inactive: -0.028,inactive: -0.001,inactive: -0.071,inactive: -0.01,inactive: -0.024,inactive: -0.062
ZNHIT2 (UniProt Q9UHR6),inactive: 0.091,inactive: -0.08,inactive: 0.007,inactive: 0.029,inactive: 0.151,inactive: -0.01,inactive: 0.01,inactive: 0.046,inactive: -0.013,inactive: 0.014,inactive: 0.126,inactive: 0.041,inactive: 0.204,inactive: -0.044,inactive: -0.133,inactive: 0.056,inactive: -0.075,inactive: 0.016,inactive: 0.061,inactive: -0.041
ZMAT2 (UniProt Q96NC0),inactive: 0.009,inactive: -0.016,inactive: -0.011,inactive: 0.013,inactive: 0.035,inactive: -0.004,inactive: -0.021,inactive: 0.032,inactive: -0.028,inactive: -0.022,inactive: -0.015,inactive: 0,inactive: -0.041,inactive: 0.062,inactive: 0.039,inactive: -0.026,inactive: -0.034,inactive: 0.087,inactive: 0.017,inactive: -0.036

# Looked up one by one from above (2):
Target,log2 fold change (ibrutinib),log2 fold change [1],log2 fold change (ralimetinib),log2 fold change [2],log2 fold change [3],log2 fold change [4],log2 fold change [5],log2 fold change [6],log2 fold change [7],log2 fold change [8],log2 fold change (vemurafenib),log2 fold change [9],log2 fold change (barasertib),log2 fold change [10],log2 fold change (volasertib),log2 fold change [11],log2 fold change [12],log2 fold change [13],log2 fold change (saracatinib),log2 fold change (sotrastaurin)
ZNF330 (UniProt Q9Y3S2),inactive: 0.024,inactive: -0.026,inactive: -0.012,inactive: -0.036,inactive: -0.048,inactive: -0.015,inactive: -0.038,inactive: 0.07,inactive: -0.02,inactive: -0.056,inactive: -0.035,inactive: 0.042,inactive: 0.008,inactive: 0.012,inactive: 0.016,inactive: -0.027,inactive: 0.106,inactive: 0.076,inactive: -0.069,inactive: -0.231
ZMAT2 (UniProt Q96NC0),inactive: 0.009,inactive: -0.016,inactive: -0.011,inactive: 0.013,inactive: 0.035,inactive: -0.004,inactive: -0.021,inactive: 0.032,inactive: -0.028,inactive: -0.022,inactive: -0.015,inactive: 0,inactive: -0.041,inactive: 0.062,inactive: 0.039,inactive: -0.026,inactive: -0.034,inactive: 0.087,inactive: 0.017,inactive: -0.036
